The record followed here is PMC7522246.

Protein sequences, listed by entry. Tags and fused reporters are not part of them.
UniProt O14744: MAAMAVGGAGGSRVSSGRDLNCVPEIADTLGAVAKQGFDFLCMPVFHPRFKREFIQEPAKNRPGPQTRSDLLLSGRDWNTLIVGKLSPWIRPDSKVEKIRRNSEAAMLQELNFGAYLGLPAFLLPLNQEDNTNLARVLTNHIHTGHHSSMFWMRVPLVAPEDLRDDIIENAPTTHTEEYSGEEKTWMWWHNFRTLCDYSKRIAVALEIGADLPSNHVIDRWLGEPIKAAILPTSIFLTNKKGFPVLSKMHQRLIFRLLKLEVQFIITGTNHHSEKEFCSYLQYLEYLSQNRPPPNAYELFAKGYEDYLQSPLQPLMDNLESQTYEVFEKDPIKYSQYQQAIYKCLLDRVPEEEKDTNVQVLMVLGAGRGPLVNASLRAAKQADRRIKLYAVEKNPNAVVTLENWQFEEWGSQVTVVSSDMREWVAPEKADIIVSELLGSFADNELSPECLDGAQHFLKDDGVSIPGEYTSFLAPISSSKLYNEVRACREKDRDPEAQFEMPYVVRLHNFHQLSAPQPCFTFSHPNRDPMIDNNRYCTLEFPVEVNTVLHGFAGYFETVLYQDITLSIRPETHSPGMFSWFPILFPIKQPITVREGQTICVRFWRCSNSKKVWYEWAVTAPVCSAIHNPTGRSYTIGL
UniProt P67809: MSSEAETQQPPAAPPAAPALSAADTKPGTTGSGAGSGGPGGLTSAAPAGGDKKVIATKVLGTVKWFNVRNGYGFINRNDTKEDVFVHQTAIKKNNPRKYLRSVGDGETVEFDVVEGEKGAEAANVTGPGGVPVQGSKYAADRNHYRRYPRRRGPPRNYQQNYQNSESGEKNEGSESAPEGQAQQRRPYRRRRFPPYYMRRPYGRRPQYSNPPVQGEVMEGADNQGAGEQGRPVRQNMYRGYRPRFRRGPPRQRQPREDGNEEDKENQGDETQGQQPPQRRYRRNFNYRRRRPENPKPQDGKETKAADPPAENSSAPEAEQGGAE

Results are given in words; binding and its absence hold for the method and conditions named. Binding seen in cells or lysates may run through a third protein. Some results given as binding are weak or reduced against the parent protein; the word gives no strength.

This experiment concerns the target Flag-PRMT5 (protein arginine methyltransferase 5) (UniProt O14744). Kind of experiment: co-IP; HEK293 and HT29 stable lines co-expressing Myc-YBX1 and Flag-PRMT5, untreated or IL-1β stimulated; lysis in 1% Triton X-100, 50 mM Tris-HCl pH 7.4, 150 mM NaCl, 1 mM EDTA; beads at 4 °C overnight; blots with anti-Myc and anti-Flag.

For “Myc-tagged WT-YBX1 (from UniProt P67809 1-324)”, the binding result is listed as “binds”.
